# Data from PubChem BioAssay AID1671190 (National Center for Advancing Translational Sciences (NCATS), 2021).
# Protein sequences, listed by entry. Tags and fused reporters are not part of them. Lines headed by an entry give the natural chain unless they say otherwise; changes in a name come on top.
# UniProt P18054: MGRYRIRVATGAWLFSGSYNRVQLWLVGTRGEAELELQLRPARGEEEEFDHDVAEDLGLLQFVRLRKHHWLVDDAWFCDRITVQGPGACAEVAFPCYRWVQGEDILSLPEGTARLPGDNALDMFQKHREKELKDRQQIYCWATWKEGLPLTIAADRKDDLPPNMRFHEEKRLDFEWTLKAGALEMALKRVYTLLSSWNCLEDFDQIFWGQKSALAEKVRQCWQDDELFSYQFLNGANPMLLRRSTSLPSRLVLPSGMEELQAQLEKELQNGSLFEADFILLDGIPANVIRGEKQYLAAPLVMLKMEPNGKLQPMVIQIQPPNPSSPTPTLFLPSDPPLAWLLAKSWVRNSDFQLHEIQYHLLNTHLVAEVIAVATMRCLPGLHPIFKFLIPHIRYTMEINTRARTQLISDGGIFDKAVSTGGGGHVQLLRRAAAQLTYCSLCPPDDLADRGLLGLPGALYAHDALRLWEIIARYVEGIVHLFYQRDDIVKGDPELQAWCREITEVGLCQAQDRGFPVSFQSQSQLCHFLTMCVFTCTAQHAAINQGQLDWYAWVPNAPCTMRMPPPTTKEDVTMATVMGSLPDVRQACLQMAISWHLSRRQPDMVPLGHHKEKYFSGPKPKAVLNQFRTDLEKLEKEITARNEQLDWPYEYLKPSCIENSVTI
# Screen size: about 580,000 compounds; about 6,100 (1.1%) were called active. The inconclusive results got no clear call from the source; some entries with a clear call stand among them for comparison. Calls come from the whole dose curve; as a rule, active = well fitted inhibition curve with a large enough effect; inconclusive = small, poorly fitted or top-dose-only effect, or another doubt; inactive = no such curve, though single readings can be large or run the other way. Potencies beside an inconclusive call are fits to weak or partial responses and may not hold up.
# Molecular target: Polyunsaturated fatty acid lipoxygenase ALOX12 (Homo sapiens) (UniProt P18054)
# Assay: Primary qHTS assay for inhibitors of human arachidonate 12S-lipoxygenase (ALOX12): Round 2
# Details: purified 12hLO, xylenol orange hydroperoxide absorbance; activity change, negative = inhibition: at 108 µM (top of the series) unless noted
# Outline: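 Purified human 12hLO at 150 nM in 25 mM Hepes, 0.01% Triton X-100, pH 7.0, preincubated 15 min at room temperature with compound. Reaction started with 40 uM arachidonic acid, 30 min at room temperature. Hydroperoxide measured by Fe-xylenol orange, 573/405 nm absorbance ratio.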
# % is set by controls: 0 for no effect and ±100 for the full control effect; potency is the fitted concentration of half-maximal effect.
Compound,Potency,"activity change, negative = inhibition"
O=C1NC[C@@H](CCCCN2C[C@H](Cc3ccccc3)N(CC3CCCCC3)C(=O)C2=O)N(CCc2ccc(O)cc2)C1=O,"inconclusive: 89.1 µM [inhibitor, single point]",–
O=C(NCCc1ccccn1)c1cc(-c2cccc3ccccc23)nc2ccccc12,–,inactive: 1.97%
Cc1ccc(-n2c(Cc3cccn3C)nnc2SCC(=O)NCc2ccco2)cc1,–,inactive: -13.1%
O=C(NCCS(=O)(=O)N1CCN(c2cccc(Cl)c2)CC1)c1ccco1,"inconclusive: 126 µM [inhibitor, partial curve, poor fit]",–
CCOC(=O)c1cccn1C1C(=O)N(Cc2ccc(OC)cc2)c2ccccc21 (centres undefined),"inconclusive: 63.1 µM [inhibitor, partial curve, poor fit]",–
Cn1c(N=Nc2ccccc2)nc2ccccc21,"inconclusive: 50.1 µM [inhibitor, partial curve, poor fit]",–
C=CCn1c(C)cc(C(=O)CN2C(=O)NC(Cc3c[nH]c4ccccc34)C2=O)c1C (centres undefined),"inconclusive: 25.1 µM [inhibitor, partial curve, poor fit]",–
Cc1ccc(C)c(NC(=O)COc2coc(CN3CCc4ccccc43)cc2=O)c1,"inconclusive: 44.7 µM [inhibitor, partial curve, poor fit]",–
Cc1cc(C)n(-c2nc3c(c(=O)n(C/C=C/c4ccccc4)c(=O)n3C)n2C)n1,–,inactive: -6.07%
COC(=O)c1c(NC(=O)CSc2ccccn2)sc2c1CCCC2,–,inactive: 14.5%
CCCc1cc(=O)oc2cc(OCc3c(C)c(C)cc(C)c3C)ccc12,"inconclusive: 79.4 µM [inhibitor, single point]",–
CCCn1c(SCC(=O)NCc2ccc(F)cc2)n[nH]c1=O,–,inactive: -7.43%
COc1ccccc1-c1cc(C(=O)NC2CCN(C)CC2)c2ccc(Cl)c(C)c2n1,"inconclusive: 141 µM [inhibitor, single point]",–
COc1ccc(OCC(=O)N(Cc2ccc(-c3ccc(F)cc3)o2)C2CCS(=O)(=O)C2)cc1 (centres undefined),–,inactive: 12.2%
CCc1ccc(-c2nc(CS(=O)CC(=O)NCCN3CCCCCC3)c(C)o2)cc1 (centres undefined),"inconclusive: 44.7 µM [inhibitor, partial curve, poor fit]",–
CC(C)C[C@H](NC(=O)c1cc2ccccc2s1)C(=O)N1CCN(C(=O)[C@H](CO)NS(=O)(=O)c2ccc(Cl)cc2Cl)CC1,"inconclusive: 19.3 µM [inhibitor, partial curve, poor fit]",–
CN(C)c1ccc(C=Cc2ccnc3ccccc23)cc1N,"inconclusive: 100 µM [inhibitor, single point]",–
O=S(=O)(c1ccc(Cl)cc1)c1nnn2c1nc(N1CCCCC1)c1ccccc12,"inconclusive: 28.2 µM [inhibitor, partial curve, poor fit]",–
O=C(CN1C(=O)/C(=C/c2cccc(Cl)c2)SC1=S)NC1C=CS(=O)(=O)C1 (centres undefined),"inconclusive: 12.6 µM [inhibitor, partial curve, poor fit]",–
COc1cc(C2C(C(C)=O)=C(O)C(=O)N2CCN2CCOCC2)ccc1O (centres undefined),"inconclusive: 3.98 µM [inhibitor, full curve, poor fit]",–

# As a short view, 2 of the compounds above.
Compound,Potency,"activity change, negative = inhibition"
Cc1cc(C)n(-c2nc3c(c(=O)n(C/C=C/c4ccccc4)c(=O)n3C)n2C)n1,–,inactive: -6.07%
COC(=O)c1c(NC(=O)CSc2ccccn2)sc2c1CCCC2,–,inactive: 14.5%

# Additional records

Compound,Potency,"activity change, negative = inhibition"
CC1CN(c2nc3c(c(=O)n(Cc4ccc(Cl)c(Cl)c4)c(=O)n3C)n2C)CC(C)O1 (centres undefined),–,inactive: 0%
CCc1ccc(C(=O)c2cnc3ccc(OC)cc3c2N2CCN(CC)CC2)cc1,"inconclusive: 25.1 µM [inhibitor, partial curve, poor fit]",–
O=C(NCCSc1ccc(Cl)cc1)NC1CC1,"inconclusive: 12.6 µM [inhibitor, full curve, poor fit]",–
CC1CCCN(CCCOc2ccc(Br)cc2Cl)C1 (centres undefined),active: 1.12 µM,–
CC(C)n1c(=S)[nH]c2scc(-c3cccs3)c2c1=O,"inconclusive: 25.1 µM [inhibitor, partial curve, poor fit]",–
Cc1ccc(C(CC(=O)N2CCCCC2)c2cn(C)c3ccccc23)cc1 (centres undefined),"inconclusive: 50.1 µM [inhibitor, partial curve]",–
CN1CCN(c2cc(-c3ccccc3Cl)ncn2)CC1,"inconclusive: 7.94 µM [inhibitor, partial curve, poor fit]",–
Cc1cc(C(=O)N2CCc3c([nH]c4ccccc34)C2c2c(F)cccc2Cl)no1 (centres undefined),–,inactive: 3.03%
COc1ccc(C(c2nnnn2C2CCCC2)N2CCN(C/C=C/c3ccccc3)CC2)cc1 (centres undefined),"inconclusive: 50.1 µM [inhibitor, partial curve, poor fit]",–
Fc1cccc(NC(=S)NC2CCCCCCC2)c1,"inconclusive: 70.8 µM [inhibitor, partial curve, poor fit]",–
O=C(NCC1(COc2cnccn2)C[C@@H](O)[C@@H](O)C1)c1ccc(F)cc1 (some centres undefined),"inconclusive: 56.2 µM [inhibitor, single point]",–
Cc1nn(C)c(C)c1CC(=O)Nc1nc(-c2ccc(F)c(F)c2)cs1,"inconclusive: 44.7 µM [inhibitor, partial curve, poor fit]",–
COc1cc(/C=C2\SC(=N)N(c3ccc(F)cc3)C2=O)ccc1O,"inconclusive: 141 µM [inhibitor, partial curve, poor fit]",–
COc1ccc(CCn2c(=O)[nH]c3cc(C(=O)N4CCN(c5ccccn5)CC4)ccc3c2=O)cc1OC,–,inactive: 38.2%
Nc1cccc2c3c(oc12)CCCC3,"inconclusive: 0.501 µM [inhibitor, full curve, poor fit]",–
CCOC(=O)c1ccc(Nc2ncnc3c2cnn3-c2cccc(Cl)c2)cc1,"inconclusive: 158 µM [inhibitor, partial curve, poor fit]",–
Cc1cccc(C(=O)N2CCC(=O)N(C(COCc3ccc(Cl)cc3)Cc3ccccc3)CC2)c1 (centres undefined),"inconclusive: 89.1 µM [inhibitor, single point]",–
N=c1c2c(ncn1Cc1ccco1)Oc1ccc3ccccc3c1C2c1ccccc1 (centres undefined),"inconclusive: 89.1 µM [inhibitor, partial curve, poor fit]",–
c1ccc2c(c1)-c1nc3ccccc3cc1C2N1CCCCC1 (centres undefined),"inconclusive: 44.7 µM [inhibitor, partial curve, poor fit]",–
